This is one part of the list. Repeats are few or missing, and single values can be far off.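 The apoptosis fraction was the count of cleaved-PARP antibody-stained nuclei relative to all DNA-stained nuclei, imaged in 1,536-well plates. Screening doses were set so most cells survived, and baseline and induced cleaved-PARP levels vary greatly across cell lines.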
What was measured:
Assay in all cases: cleaved PARP positive nuclei fraction relative to DMSO control; melanoma cells; higher = more apoptosis
Settings in all cases: library dose: low library concentration; 72 h
[1] = tested on: A101D
[2] = tested on: A2058
[3] = tested on: A375
[4] = tested on: C32
[5] = tested on: CBRC008 (line from a melanoma biopsy)
[6] = tested on: CBRC014 (line from a melanoma biopsy)
[7] = tested on: CBRC016 (line from a melanoma biopsy)
[8] = tested on: CBRC017 (line from a melanoma biopsy)
[9] = tested on: CBRC013 (line from a melanoma biopsy)

Compound	cleaved PARP positive nuclei fraction [1] [%]	cleaved PARP positive nuclei fraction [2] [%]	cleaved PARP positive nuclei fraction [3] [%]	cleaved PARP positive nuclei fraction [4] [%]	cleaved PARP positive nuclei fraction [5] [%]	cleaved PARP positive nuclei fraction [6] [%]	cleaved PARP positive nuclei fraction [7] [%]	cleaved PARP positive nuclei fraction [8] [%]	cleaved PARP positive nuclei fraction [9] [%]
O=c1[nH]nc(Sc2ncc([N+](=O)[O-])s2)n1-c1ccc2c(c1)OCCO2 + C[C@]12O[C@H](C[C@]1(O)CO)n1c3ccccc3c3c4c(c5c6ccccc6n2c5c31)CNC4=O [Lestaurtinib] (first compound 0.2 µM, partner dose 0.004 µM)	444	47.3	189	146	68.6	120	94.5	124	–
N.N.[Cl][Pt][Cl] [cisplatin] + NCC(=O)Nc1ccc(-n2nc(C(F)(F)F)cc2-c2ccc3c(ccc4ccccc43)c2)cc1 [OSU03012] (first compound 1.6 µM, partner dose 1 µM)	89.7	133	102	43	199	89.5	123	98.4	70.9
C[As](C)SC[C@H](NC(=O)CC[C@H](N)C(=O)O)C(=O)NCC(=O)O [Darinaparsin] + COc1ccc(Cl)c(Nc2nc3ccccc3nc2NS(=O)(=O)c2cccc(NC(=O)C(C)(C)N)c2)c1 [XL147] (first compound 0.4 µM, partner dose 0.8 µM)	335	90.4	158	74	101	137	123	120	–
C=CCn1c(=O)c2cnc(Nc3ccc(N4CCN(C)CC4)cc3)nc2n1-c1cccc(C(C)(C)O)n1 + C/C(O)=C(\C#N)C(=O)Nc1cc(Br)ccc1Br [LFM-A13] (first compound 0.02 µM, partner dose 2 µM)	66.3	70.7	264	96.4	–	119	65	96.9	48.7
C[As](C)SC[C@H](NC(=O)CC[C@H](N)C(=O)O)C(=O)NCC(=O)O [Darinaparsin] + Cn1cc(/C=C2\C(=O)Nc3cccnc32)c2ccccc21 [GW441756] (first compound 0.4 µM, partner dose 0.4 µM)	111	91.2	191	24.6	–	91.7	29.9	95.4	370
C[C@]12O[C@H](C[C@]1(O)CO)n1c3ccccc3c3c4c(c5c6ccccc6n2c5c31)CNC4=O [Lestaurtinib] + C[As](C)SC[C@H](NC(=O)CC[C@H](N)C(=O)O)C(=O)NCC(=O)O [Darinaparsin] (first compound 0.004 µM, partner dose 0.4 µM)	87	16.1	105	76.6	60.6	82.9	106	113	–
C[As](C)SC[C@H](NC(=O)CC[C@H](N)C(=O)O)C(=O)NCC(=O)O [Darinaparsin] + Oc1cc(-c2nc(-c3ccccc3)[nH]c2-c2ccncc2)ccc1Cl [L779450] (first compound 0.4 µM, partner dose 0.2 µM)	59.1	92.8	141	95.7	–	83.5	93.9	82.4	131
C#Cc1cccc(Nc2ncnc3cc(OCCOC)c(OCCOC)cc23)c1 [erlotinib] + Cc1cc(SCc2sc(-c3ccc(C(F)(F)F)c(F)c3)nc2C)ccc1OCC(=O)O [GW0742] (first compound 0.8 µM, partner dose 2 µM)	118	48.1	96	122	–	101	99.6	106	589
C[As](C)SC[C@H](NC(=O)CC[C@H](N)C(=O)O)C(=O)NCC(=O)O [Darinaparsin] + COc1cc(N2CCC(N3CCN(C)CC3)CC2)ccc1Nc1ncc(Cl)c(Nc2ccccc2S(=O)(=O)C(C)C)n1 [NVP-TAE684] (first compound 0.4 µM, partner dose 0.08 µM)	150	203	162	114	–	97.9	120	77.6	56.1
Cn1cc(C2=C(c3cn(C4CCN(Cc5ccccn5)CC4)c4ccccc34)C(=O)NC2=O)c2ccccc21 [Enzastaurin] + NC1(c2ccc(-c3nc4ccn5c(=O)[nH]nc5c4cc3-c3ccccc3)cc2)CCC1 [MK2206] (first compound 0.8 µM, partner dose 0.4 µM)	106	119	57.4	85.9	191	116	168	303	–
N.N.[Cl][Pt][Cl] [cisplatin] + O=C(O)c1ccc(-c2c[nH]c3ncc(-c4ccccc4)cc23)cc1C1CCCC1 [GSK650394] (first compound 1.6 µM, partner dose 0.16 µM)	141	54.4	93.5	141	440	104	200	137	109
C[C@@H]1CCN(C(=O)CC#N)C[C@@H]1N(C)c1ncnc2[nH]ccc12 + O=C(Oc1ccc([N+](=O)[O-])cc1)N1CCC(C(O)(c2ccc3c(c2)OCO3)c2ccc3c(c2)OCO3)CC1 [JZL184] (first compound 1 µM, partner dose 1 µM)	110	56	44.7	162	–	102	54.4	84.3	201
CC(C)C[C@H](NC(=O)[C@H](Cc1ccccc1)NC(=O)c1cnccn1)B(O)O [Bortezomib] + Cc1cc(SCc2sc(-c3ccc(C(F)(F)F)c(F)c3)nc2C)ccc1OCC(=O)O [GW0742] (first compound 0.001 µM, partner dose 2 µM)	256	41.7	–	224	2060	189	388	650	–
COCC[n+]1c2c(n(Cc3cnccn3)c1C)C(=O)c1ccccc1C2=O + O=C(Oc1ccc([N+](=O)[O-])cc1)N1CCC(C(O)(c2ccc3c(c2)OCO3)c2ccc3c(c2)OCO3)CC1 [JZL184] (first compound 0.0004 µM, partner dose 1 µM)	58.7	296	114	290	–	94.9	100	174	228
C[C@]12O[C@H](C[C@]1(O)CO)n1c3ccccc3c3c4c(c5c6ccccc6n2c5c31)CNC4=O [Lestaurtinib] + Cn1c(Nc2ccc(C(F)(F)F)cc2)nc2cc(Oc3ccnc(-c4ncc(C(F)(F)F)[nH]4)c3)ccc21 [CHIR265] (first compound 0.004 µM, partner dose 0.08 µM)	147	249	288	87.6	77.3	103	82.4	142	–
Cn1c(=O)n(-c2ccc(C(C)(C)C#N)cc2)c2c3cc(-c4cnc5ccccc5c4)ccc3ncc21 + N.N.[Cl][Pt][Cl] [cisplatin] (first compound 0.004 µM, partner dose 1.6 µM)	57	62.4	296	171	35.2	84.1	90.3	113	–
CC(=O)O[C@@]12CO[C@@H]1C[C@H](O)[C@@]1(C)C(=O)[C@H](O)C3=C(C)[C@@H](OC(=O)[C@H](O)[C@@H](NC(=O)OC(C)(C)C)c4ccccc4)C[C@@](O)([C@@H](OC(=O)c4ccccc4)[C@H]21)C3(C)C [Docetaxel] + C[As](C)SC[C@H](NC(=O)CC[C@H](N)C(=O)O)C(=O)NCC(=O)O [Darinaparsin] (first compound 0.0001 µM, partner dose 0.4 µM)	152	4360	4500	381	260	188	298	160	–
C[As](C)SC[C@H](NC(=O)CC[C@H](N)C(=O)O)C(=O)NCC(=O)O [Darinaparsin] + C/C(O)=C(\C#N)C(=O)Nc1cc(Br)ccc1Br [LFM-A13] (first compound 0.4 µM, partner dose 2 µM)	73.8	65.1	72.8	115	–	114	86.2	82.8	569
Nc1ccn([C@@H]2O[C@H](CO)[C@@H](O)C2(F)F)c(=O)n1 [gemcitabine] + Cc1cc(SCc2sc(-c3ccc(C(F)(F)F)c(F)c3)nc2C)ccc1OCC(=O)O [GW0742] (first compound 0.0004 µM, partner dose 2 µM)	13.1	52.9	–	42	47.5	179	252	118	–
O=C(CCCCCCC(=O)Nc1ccccc1)NO [vorinostat] + O=C(Oc1ccc([N+](=O)[O-])cc1)N1CCC(C(O)(c2ccc3c(c2)OCO3)c2ccc3c(c2)OCO3)CC1 [JZL184] (first compound 0.08 µM, partner dose 1 µM)	159	108	84.6	174	–	81.1	112	89.1	48.1

Fetched one by one from the entries so far:
Compound	cleaved PARP positive nuclei fraction [1] [%]	cleaved PARP positive nuclei fraction [2] [%]	cleaved PARP positive nuclei fraction [3] [%]	cleaved PARP positive nuclei fraction [4] [%]	cleaved PARP positive nuclei fraction [5] [%]	cleaved PARP positive nuclei fraction [6] [%]	cleaved PARP positive nuclei fraction [7] [%]	cleaved PARP positive nuclei fraction [8] [%]	cleaved PARP positive nuclei fraction [9] [%]
Nc1ccn([C@@H]2O[C@H](CO)[C@@H](O)C2(F)F)c(=O)n1 [gemcitabine] + Cc1cc(SCc2sc(-c3ccc(C(F)(F)F)c(F)c3)nc2C)ccc1OCC(=O)O [GW0742] (first compound 0.0004 µM, partner dose 2 µM)	13.1	52.9	–	42	47.5	179	252	118	–
O=C(CCCCCCC(=O)Nc1ccccc1)NO [vorinostat] + O=C(Oc1ccc([N+](=O)[O-])cc1)N1CCC(C(O)(c2ccc3c(c2)OCO3)c2ccc3c(c2)OCO3)CC1 [JZL184] (first compound 0.08 µM, partner dose 1 µM)	159	108	84.6	174	–	81.1	112	89.1	48.1
